PubChem BioAssay AID1259308 – NCATS – 2017

Purpose: 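Candidate targets for better recombinant protein yield in mammalian cells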 (primary screen)
Cells: human HEK293 embryonic kidney cells stably expressing firefly luciferase (HEK-CMV-Luc2-Hygro)
Reagents: single siRNA against human genes, 0.8 pmol siRNA per well
Time to read-out: 72 h
Detection: 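Luciferase light (ONE-Glo) measured on one replicate plate set and viability (CellTiter-Glo) on the other, scaled to a negative control siRNA, with robust z-scores and luciferase per cell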
Scale: total luciferase, z-score: higher = more reporter protein produced
Active means: 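An siRNA counts as active if its total luciferase robust z-score exceeds 3; genes with two or more such siRNAs out of three were retested with fresh siRNAs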
Calls: active = raised luciferase; inactive = no rise
This is an unselected part of about 59,000 deposited reagents. In the full data, about 1,510 (2.6%) were called active. 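Calls use total luciferase alone and ignore viability, so some active siRNAs may act by altering cell number.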 Entries without a mark were called inactive. Reagents against one gene are numbered here. Not all columns of the deposit are shown.

total luciferase, z-score, by target gene and reagent
SLC19A4P: #1 0.632; #2 0.465; #3 -0.865
RAPSN: #1 -0.106; #2 -0.291; #3 -0.0389
CEP76: #1 -0.53; #2 -0.3; #3 0.758
HIP1: #1 0.443; #2 -0.459; #3 -0.626
MLNR: #1 0.119; #2 -0.485; #3 -1.27
FBXO3: #1 -0.715; #2 0.456; #3 0.0559
PSAPL1: #1 0.792; #2 0.223; #3 0.249
LINC01118: #1 -2.49; #2 3.46 (active); #3 -2.65
MYL5: #1 0.818; #2 -0.433; #3 -0.548
GAPDHS: #1 -0.732; #2 -0.635; #3 -0.145
RPS2P20: #1 0.372; #2 0.0843; #3 0.0441
FANCC: #1 2.55; #2 0.447; #3 0.361
C22orf31: #1 0.951; #2 -0.104; #3 1.68

Reagents listed above marked active (1):
total luciferase, z-score, by target gene and reagent
LINC01118: #2 3.46 (active)
